Reference: article PMC11101681
Read-outs that look alike come from different tables or passages of the source. No constants are given. Whether binding was seen depends on the method and setting. In cells and extracts the contact can be indirect. Some entries that bind do so weakly or less than the wild type. For some of these results: Tags and fused reporters may be left off the sequences shown.

Protein sequences, listed by entry. Tags and fused reporters are not part of them.
UniProt Q9NVP2: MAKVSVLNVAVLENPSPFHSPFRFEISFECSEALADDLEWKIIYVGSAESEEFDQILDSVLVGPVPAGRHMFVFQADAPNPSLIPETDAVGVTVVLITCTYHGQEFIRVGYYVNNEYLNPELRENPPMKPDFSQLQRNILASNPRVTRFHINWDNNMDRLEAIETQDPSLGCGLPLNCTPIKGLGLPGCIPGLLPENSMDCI
UniProt P39687: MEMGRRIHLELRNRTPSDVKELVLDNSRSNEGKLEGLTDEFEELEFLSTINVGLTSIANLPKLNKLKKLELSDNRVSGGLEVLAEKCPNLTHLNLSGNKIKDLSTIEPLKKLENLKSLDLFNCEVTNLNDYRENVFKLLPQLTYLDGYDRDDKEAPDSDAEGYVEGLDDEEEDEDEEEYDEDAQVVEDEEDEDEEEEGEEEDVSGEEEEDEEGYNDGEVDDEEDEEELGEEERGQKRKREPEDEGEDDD

T1: GINS2 (Flag-BIOID2-GINS2) (human (cDNA library of U2OS cells)) (UniProt Q9Y248)
T1 sequence: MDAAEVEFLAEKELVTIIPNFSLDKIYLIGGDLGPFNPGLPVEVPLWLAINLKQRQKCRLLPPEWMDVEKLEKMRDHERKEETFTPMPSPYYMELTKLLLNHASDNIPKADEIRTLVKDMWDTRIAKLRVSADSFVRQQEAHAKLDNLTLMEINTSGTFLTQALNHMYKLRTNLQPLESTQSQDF

T2: POLE4 (Flag-BIOID2-POLE4) (human (cDNA library of U2OS cells)) (UniProt Q9NR33)
T2 sequence: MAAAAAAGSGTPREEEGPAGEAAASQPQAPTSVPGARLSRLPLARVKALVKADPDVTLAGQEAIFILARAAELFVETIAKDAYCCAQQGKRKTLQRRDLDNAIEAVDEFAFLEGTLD

B1: ZPR1 (protein, UniProt O75312 1-459)
chain: MAASGAVEPGPPGAAVAPSPAPAPPPAPDHLFRPISAEDEEQQPTEIESLCMNCYCNGMTRLLLTKIPFFREIIVSSFSCEHCGWNNTEIQSAGRIQDQGVRYTLSVRALEDMNREVVKTDSAATRIPELDFEIPAFSQKGALTTVEGLITRAISGLEQDQPARRANKDATAERIDEFIVKLKELKQVASPFTLIIDDPSGNSFVENPHAPQKDDALVITHYNRTRQQEEMLGLQEEAPAEKPEEEDLRNEVLQFSTNCPECNAPAQTNMKLVQIPHFKEVIIMATNCENCGHRTNEVKSGGAVEPLGTRITLHITDASDMTRDLLKSETCSVEIPELEFELGMAVLGGKFTTLEGLLKDIRELVTKNPFTLGDSSNPGQTERLQEFSQKMDQIIEGNMKAHFIMDDPAGNSYLQNVYAPEDDPEMKVERYKRTFDQNEELGLNDMKTEGYEAGLAPQR

Columns and labels:
Experiment in all cases: proximity ligation; PLA kit on fixed, permeabilised 293FT cells expressing the bait (doxycycline 48 h); antibody pairs Myc or FLAG with ANP32A or ZPR1; untreated or 500 uM hydroxyurea for 24 h; signals per cell counted
[1] = biological target: T1, GINS2 (Flag-BIOID2-GINS2) (human (cDNA library of U2OS cells))
[2] = biological target: T2, POLE4 (Flag-BIOID2-POLE4) (human (cDNA library of U2OS cells))
[3] = biological target: ASF1B (3xMyc-BioID2-ASF1B) (human (cDNA library of U2OS cells)) (UniProt Q9NVP2)
[4] = biological target: T2, POLE4 (Flag-BIOID2-POLE4) (human (cDNA library of U2OS cells)); remark: listed apart in the source

Molecule | binding [1] | binding [2] | binding [3] | binding [4]
Acidic leucine-rich nuclear phosphoprotein 32 family member A (ANP32A) (from UniProt P39687 1-249) | binds | binds | – | –
B1 | – | – | binds | binds
